# Laboratory results reported in article PMC4423596 (Angewandte Chemie (International ed. in English), 2015).
# The chains behind the UniProt entries cited, without tags or fusion partners. Residues count along the entry.
# UniProt P45481, 586-665: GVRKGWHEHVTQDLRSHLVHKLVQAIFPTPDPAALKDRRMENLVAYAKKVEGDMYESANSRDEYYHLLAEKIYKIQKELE
# Target: CBP/p300 KIX domain (Mus musculus, UniProt P45481)
# Assay: PrOF NMR chemical shift perturbation at fixed ligand concentration
# Type: binding
# Conditions: 3FY-labeled KIX; 833 µM to 5 mM small molecule
smiles,measurement,value
COc1ccc2cc([C@H](C)C(=O)O)ccc2c1 [naproxen],"chemical shift perturbation (PrOF NMR), in words",under the statistical cutoff
